Source: PubChem BioAssay AID445 (National Center for Advancing Translational Sciences (NCATS), 2006)
The list shows a part of the results. The main result of the screen is listed elsewhere. These columns were measured beside it and carry no call. Compounds called inactive in the main read-out are mostly missing here. Words in brackets tell the shape of the fitted curve; partial curves, single points and poor fits give uncertain potencies.

Assay: IkB Signaling
Conditions: ABC-DLBCL IkBa-CBG/CBR dual luciferase ratio (green luciferase fused to IkBa over red control in OCI-Ly3 lymphoma cells), 4 h
Summary of the method: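 In this assay, an IκBα–CBG68 fusion accumulates when IKK-driven degradation is blocked; native CBR normalizes for cell number. OCI-Ly3 cells were treated 4 h with compound and doxycycline, then green and red light read after Chroma-Glo addition.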

[1] = measured here: control luc red channel unless noted

CC(C)c1nc2ccc(C(=O)NCCCN3CCN(c4ccc(F)cc4)CC3)cc2o1
AC50 [1]: 1.26 µM [falling, full curve]

COc1cccc(-n2c(-c3ccc(C)cc3)cc3c2CC(C)(C)CC3=O)c1
AC50 [1]: 20 µM [falling, partial curve]

Cc1ccc2c(c1)CC(C)N2S(=O)(=O)c1nnc(NC(=O)CC(C)C)s1 (centres undefined)
AC50 [1]: 2.51 µM [rising, partial curve, poor fit]

COc1ccc(OC)c(NC(=O)CCc2c(C)nc3c(c(C)nn3C(C)(C)C)c2C)c1
AC50 [1]: 3.16 µM [falling, full curve]

CCCN(Cc1cc2cc(C)ccc2[nH]c1=O)S(C)(=O)=O
AC50 [1]: 2.51 µM [falling, full curve]

CC(=O)c1sc(NC(=O)C2COc3ccccc3O2)nc1C (centres undefined)
AC50 [1]: 3.98 µM [falling, full curve]

O=C(c1cccc2ccccc12)N1CCN(c2ccccc2F)CC1
AC50 [1]: 25.1 µM [falling, partial curve]

CC(C)c1ccc(-c2nnn(CCC(=O)O)n2)cc1
AC50 [1]: 6.31 µM [falling, partial curve]

Cc1ccc(N(CC(=O)Nc2cccc(C)c2)S(=O)(=O)c2cccc3nonc23)cc1
AC50 [1]: 10 µM [falling, partial curve]

Cn1c(=O)c2ccccc2n(Cc2ccccc2F)c1=O
AC50 [1]: 15.8 µM [falling, partial curve]

CCOc1ccccc1C(=O)Nc1nnc(COC)s1
AC50 [1]: 3.16 µM [rising, partial curve, poor fit]

COc1ccc2c(C(=O)CN(C)C3CCCCC3)c[nH]c2c1
AC50 [1]: 0.0794 µM [falling, full curve]

CCN(CC)S(=O)(=O)c1ccc2c(c1)c(=O)c(C(=O)NCc1ccccc1OC)cn2C
AC50 (measured here: IkB-luc green channel): 39.8 µM [rising, single point] | AC50 (measured here: control luc red channel): 39.8 µM [rising, partial curve]

Cc1ccc(C(=O)N2CCc3cc(CNC(=O)c4ccnn4C)ccc32)cc1
AC50 [1]: 6.31 µM [falling, single point]

Cc1ccc(NS(=O)(=O)c2ccc3c(c2)NC(=O)CCS3)cc1F
AC50 [1]: 15.8 µM [falling, partial curve]

O=C(NCc1ccc2c(c1)CCN2C(=O)c1ccccc1)c1ccc(Br)o1
AC50 [1]: 20 µM [falling, partial curve]

Cc1ccc(-c2nc(-c3cc4cccc(OCc5cccc(F)c5)c4oc3=O)no2)cc1
AC50 [1]: 3.98 µM [falling, full curve]

CCOc1ccc(-n2c(Cc3ccccc3)nnc2SCc2nc(-c3cccs3)no2)cc1
AC50 [1]: 25.1 µM [falling, partial curve]
